Results on one substance are retold here after US6454951B1, “Photosensitive composition” (priority 1996, dated 2002).

This data set has as its system spheroplasts or protoplasts. In words: Distribution of porphyrin between spheroplasts or protoplasts and outer cell wall. The class given is cell-based. Conditions: in words.

For “Meso-di(N-methyl-4-pyridyl)diphenylporphine [Di(4-N-MPy)Ph2P]”, the “Effect of washing operations on porphyrin at endocellular / binding sites” value is given as “not noticeably decreased by washing operations”.
